Results deposited as PubChem BioAssay AID1508597 (Cure First, 2020).
Screen: 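Knock-downs altering ovarian cancer cell survival with or without PARP inhibitor rucaparib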 (primary screen). Cells: human ovarian carcinoma lines grown from tumours: OCI-P5x (papillary serous) and OCI-C5x (clear cell). Reagents: siRNA pool against human genes, 1.25 pmol siRNA per well. Timing: 72 h or 96 h, depending on the cell culture. Treatment: rucaparib 20 µM (about IC30) or vehicle, present until read-out. Rucaparib or vehicle: Rucaparib. Cell line: OCI-C5x (clear cell). Measurement: 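Luminescent ATP-based viability assay read 72 or 96 h after transfection, depending on culture, given as normalised percent viability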. Scale: viability, normalised: higher = more viable cells remaining. Rule for the call: 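Active when normalised viability falls below 80 percent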. Meaning of the calls: active = viability under 80%; inactive = viability 80% or more.
Shown is a random part of the about 2,100 reagents, in one setting of the screen. 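Calls flag viability under 80% in either arm, not effects specific to rucaparib; the reference for percent is not stated.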 A number with no mark means an inactive call. Some reagents were tested in more than one well and are listed for each. No sequences are given here. Not stated in the record: the 100% reference.

gene | technical replicate | viability, normalised (%)
AGK (GeneID 55750) | 1 | 72.8 (active)
AGK (GeneID 55750) | 2 | 47.7 (active)
AGK (GeneID 55750) | 3 | 61.4 (active)
BAZ1B (GeneID 9031) | 1 | 56.1 (active)
BAZ1B (GeneID 9031) | 2 | 43 (active)
BAZ1B (GeneID 9031) | 3 | 51.1 (active)
MED11 (GeneID 400569) | 1 | 35.9 (active)
MED11 (GeneID 400569) | 2 | 31 (active)
MED11 (GeneID 400569) | 3 | 41 (active)
CDH4 (GeneID 1002) | 1 | 74.9 (active)
CDH4 (GeneID 1002) | 2 | 64.6 (active)
CDH4 (GeneID 1002) | 3 | 81.1
ROR2 (GeneID 4920) | 1 | 47 (active)
ROR2 (GeneID 4920) | 2 | 47.5 (active)
ROR2 (GeneID 4920) | 3 | 40.6 (active)
COQ8B (GeneID 79934) | 1 | 46.5 (active)
COQ8B (GeneID 79934) | 2 | 53 (active)
COQ8B (GeneID 79934) | 3 | 47.9 (active)
NEK8 (GeneID 284086) | 1 | 54.3 (active)
NEK8 (GeneID 284086) | 2 | 60.6 (active)
NEK8 (GeneID 284086) | 3 | 47.6 (active)
ABCG2 (GeneID 9429) | 1 | 74.4 (active)
ABCG2 (GeneID 9429) | 2 | 63 (active)
ABCG2 (GeneID 9429) | 3 | 82.5
RAI1 (GeneID 10743) | 1 | 33.3 (active)
RAI1 (GeneID 10743) | 2 | 36.7 (active)
RAI1 (GeneID 10743) | 3 | 42.1 (active)
KPNA1 (GeneID 3836) | 1 | 62.1 (active)
KPNA1 (GeneID 3836) | 2 | 78 (active)
KPNA1 (GeneID 3836) | 3 | 60.6 (active)
MAPK6 (GeneID 5597) | 1 | 63.3 (active)
MAPK6 (GeneID 5597) | 2 | 61.7 (active)
MAPK6 (GeneID 5597) | 3 | 47.9 (active)
MORF4L2 (GeneID 9643) | 1 | 56.4 (active)
MORF4L2 (GeneID 9643) | 2 | 53 (active)
MORF4L2 (GeneID 9643) | 3 | 81.2
TCF7L1 (GeneID 83439) | 1 | 65.2 (active)
TCF7L1 (GeneID 83439) | 2 | 54 (active)
TCF7L1 (GeneID 83439) | 3 | 42.2 (active)
H4C6 (GeneID 8361) | 1 | 48.2 (active)
H4C6 (GeneID 8361) | 2 | 32.8 (active)
H4C6 (GeneID 8361) | 3 | 52.3 (active)
BABAM1 (GeneID 29086) | 1 | 71.1 (active)
BABAM1 (GeneID 29086) | 1 | 61 (active)
BABAM1 (GeneID 29086) | 2 | 80.9
BABAM1 (GeneID 29086) | 2 | 81.5
BABAM1 (GeneID 29086) | 3 | 60.9 (active)
BABAM1 (GeneID 29086) | 3 | 54.7 (active)
CDIPT (GeneID 10423) | 1 | 53.5 (active)
CDIPT (GeneID 10423) | 2 | 54.2 (active)
CDIPT (GeneID 10423) | 3 | 47.7 (active)
KIF18A (GeneID 81930) | 1 | 53.5 (active)
KIF18A (GeneID 81930) | 1 | 56.2 (active)
KIF18A (GeneID 81930) | 2 | 52.3 (active)
KIF18A (GeneID 81930) | 2 | 77.5 (active)
KIF18A (GeneID 81930) | 3 | 72.9 (active)
KIF18A (GeneID 81930) | 3 | 44.2 (active)
DGKH (GeneID 160851) | 1 | 56 (active)
DGKH (GeneID 160851) | 2 | 79 (active)
DGKH (GeneID 160851) | 3 | 60 (active)
CAMK2G (GeneID 818) | 1 | 75.8 (active)
CAMK2G (GeneID 818) | 1 | 46.3 (active)
CAMK2G (GeneID 818) | 2 | 47.4 (active)
CAMK2G (GeneID 818) | 2 | 66.9 (active)
CAMK2G (GeneID 818) | 3 | 65.2 (active)
CAMK2G (GeneID 818) | 3 | 44 (active)
PHF5A (GeneID 84844) | 1 | 37.8 (active)
PHF5A (GeneID 84844) | 2 | 29.5 (active)
PHF5A (GeneID 84844) | 3 | 35.5 (active)
CHMP2B (GeneID 25978) | 1 | 52.1 (active)
CHMP2B (GeneID 25978) | 2 | 44.2 (active)
CHMP2B (GeneID 25978) | 3 | 40.7 (active)
TDP2 (GeneID 51567) | 1 | 51.7 (active)
TDP2 (GeneID 51567) | 1 | 39.1 (active)
TDP2 (GeneID 51567) | 2 | 46.3 (active)
TDP2 (GeneID 51567) | 2 | 51.1 (active)
TDP2 (GeneID 51567) | 3 | 46.9 (active)
TDP2 (GeneID 51567) | 3 | 40.7 (active)

A few values from above:
MORF4L2 (GeneID 9643), technical replicate 1, viability, normalised (%) → 56.4 (active)
For “viability, normalised (%)”, PHF5A (GeneID 84844), technical replicate 3 shows 35.5 (active)
For “viability, normalised (%)”, NEK8 (GeneID 284086), technical replicate 3 is entered as 47.6 (active)
For “viability, normalised (%)”, MED11 (GeneID 400569), technical replicate 3 has 41 (active)
Under “viability, normalised (%)”, NEK8 (GeneID 284086), technical replicate 2 is entered as 60.6 (active)
For “viability, normalised (%)”, COQ8B (GeneID 79934), technical replicate 3 has 47.9 (active)
